Chains of the proteins cited; added tags and fusions are not shown. Lines headed by an entry give the natural chain unless they say otherwise; changes in a name come on top.
UniProt Q9LP53: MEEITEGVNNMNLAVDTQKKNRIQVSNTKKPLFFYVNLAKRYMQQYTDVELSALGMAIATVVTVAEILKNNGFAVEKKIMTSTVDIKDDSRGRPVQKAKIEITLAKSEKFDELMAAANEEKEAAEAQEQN

According to paper PMC11649824:

How the values were obtained:
Test in all cases: co-IP; mCherry immunoprecipitation from 9- or 10-day-old seedlings expressing ECT2-mCherry variants (three independent lines pooled), immunoblot with mCherry- and ALBA1-specific antibodies
[1] = biological target: ECT2^ΔN8-mCherry (Arabidopsis thaliana) (UniProt Q9LJE5)
[2] = biological target: ECT2^ΔN.2-mCherry (Arabidopsis thaliana) (UniProt Q9LJE5)
[3] = biological target: T1, ECT2^WT-mCherry (Arabidopsis thaliana) (UniProt Q9LJE5)
T1 sequence: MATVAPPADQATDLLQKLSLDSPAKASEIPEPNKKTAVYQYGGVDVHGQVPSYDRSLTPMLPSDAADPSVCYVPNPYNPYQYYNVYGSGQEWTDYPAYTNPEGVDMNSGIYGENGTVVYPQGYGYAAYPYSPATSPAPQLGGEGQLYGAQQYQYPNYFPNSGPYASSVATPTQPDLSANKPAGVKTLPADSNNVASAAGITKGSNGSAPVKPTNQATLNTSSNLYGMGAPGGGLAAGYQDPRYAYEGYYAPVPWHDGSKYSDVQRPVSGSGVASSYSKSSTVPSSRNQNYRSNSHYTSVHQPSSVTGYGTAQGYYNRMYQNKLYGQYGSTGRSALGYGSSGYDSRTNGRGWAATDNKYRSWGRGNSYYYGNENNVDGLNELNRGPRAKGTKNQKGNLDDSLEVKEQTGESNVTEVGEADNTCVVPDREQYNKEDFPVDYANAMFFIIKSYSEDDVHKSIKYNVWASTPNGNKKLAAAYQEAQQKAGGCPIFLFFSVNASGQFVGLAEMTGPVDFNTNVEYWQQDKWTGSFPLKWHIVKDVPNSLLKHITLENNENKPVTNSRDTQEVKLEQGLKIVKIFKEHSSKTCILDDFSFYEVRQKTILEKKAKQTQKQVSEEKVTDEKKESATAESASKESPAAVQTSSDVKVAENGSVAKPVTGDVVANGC

binding [1]: binds
binding [2]: no binding
binding [3]: binds
Substance: ALBA1 (from UniProt Q9LP53)

Results are given in words; binding and its absence hold for the method and conditions named. Binding seen in cells or lysates may run through a third protein. For part of these data: Binding calls can cover weak binding; strength is not graded here.
